# Reference: patent US20250144049A1, “METHODS, COMPOSITIONS, AND USES RELATED TO THE TREATMENT AND PREVENTION OF LEIGH SYNDROME” (Stealth BioTherapeutics Inc., priority 2023, published 2025)
# Some entries share one result that the patent states for a list of compounds.
# Legend:
# 15-lipoxygenase (15-LO) [1] = assay: 15(S)-HETE ELISA following erastin treatment, Leigh fibroblasts; assay type: cell-based, human; settings: erastin + FAC + AA, FIG. 15; for inhibitory effect on 15-LO (15(S)-HETE in supernatant): 1 μM compound, 24 hours
# Procedure: (§1) Samples for the 15(S)-HETE ELISA were generated by the Erastin Assay described above. Healthy or Leigh fibroblasts were resuspended in assay medium, seeded at 200,000 cells/well in a clear, tissue culture-treated, 24-well plate, and incubated at 37° C. for 24 hours. Supernatant was aspirated from each well.
# (§2) Ferroptosis was induced using erastin at 2 μM concentration. 15(S)-HETE, which is a metabolite of arachidonic acid and generated by activity of 15-LO, was measured using a commercially available ELISA kit. Data were normalized to the “No treatment” group, which represented fibroblasts that were not injured with erastin.
# 15-lipoxygenase (15-LO) [2] = assay: 15(S)-HETE ELISA following erastin treatment, healthy fibroblasts; assay type: cell-based, human; settings: erastin + FAC + AA, FIG. 14; for inhibitory effect on 15-LO (15(S)-HETE in supernatant): 1 μM compound, 24 hours
# Procedure: as §1, §2
SMILES,inhibitory effect on 15-LO (15(S)-HETE in supernatant) (15-lipoxygenase (15-LO) [1]),15-LO inhibition compared among test articles (15-lipoxygenase (15-LO) [1]),inhibitory effect on 15-LO (15(S)-HETE in supernatant) (15-lipoxygenase (15-LO) [2]),15-LO inhibition compared among test articles (15-lipoxygenase (15-LO) [2])
COC1=C(OC)C(=O)C(CCCCCCCCCC(F)(F)F)=C(C)C1=O [Compound 1],inhibitory effect on 15-LO,about equally effective,–,–
CC1=C(C)C(=O)C(CC[C@@](C)(O)CC/C=C(\C)CCC=C(F)F)=C(C)C1=O [Compound 2],inhibitory effect on 15-LO,about equally effective,inhibitory effect on 15-LO,about equally effective
CC1=C(C)C(=O)C(CC[C@@](C)(O)COCCC[Si](C)(C)C)=C(C)C1=O [Compound 3],inhibitory effect on 15-LO,about equally effective,inhibitory effect on 15-LO,about equally effective
CC1=C(C)C(=O)C(CC[C@](C)(O)CCCCCCCCC(F)(F)F)=C(C)C1=O [Compound 4],inhibitory effect on 15-LO,about equally effective,inhibitory effect on 15-LO,about equally effective
